Measured values taken from PMC6829553.
These are yes or no findings as the source states them, for the method shown. Sequences can lack the tags named with a protein.

Target: T1, AcMYB10C (112-222aa) fused to the BD (Actinidia chinensis cv. Hongyang)
T1 sequence: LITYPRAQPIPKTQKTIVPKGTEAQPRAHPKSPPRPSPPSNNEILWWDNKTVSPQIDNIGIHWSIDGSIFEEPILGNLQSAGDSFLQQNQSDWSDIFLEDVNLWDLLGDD
Test: two-hybrid; yeast strain AH109; BD fusions in pGBKT7, AD fusions in pGADT7; selected on SD/-Leu/-Trp, then growth on SD/-Ade/-His/-Leu/-Trp with 15 mM 3AT; X-alpha-gal to confirm

- binding: no binding
Substance: AcBHLH42-AD (full-length AcbHLH42 in pGADT7) (Actinidia chinensis cv. Hongyang)
